Experimental data taken from publication doi:10.1101/2023.03.15.532838.
Where two headings read alike, the source gives them in different places. Results are given in words; binding and its absence hold for the method and conditions named. In cells and extracts the contact can be indirect. Some results given as binding are weak or reduced against the parent protein; the word gives no strength. For some of these results: Where a sequence is shown, tags or fusion partners need not be part of it.

Protein sequences, listed by entry. Tags and fused reporters are not part of them.
UniProt Q5SQI0: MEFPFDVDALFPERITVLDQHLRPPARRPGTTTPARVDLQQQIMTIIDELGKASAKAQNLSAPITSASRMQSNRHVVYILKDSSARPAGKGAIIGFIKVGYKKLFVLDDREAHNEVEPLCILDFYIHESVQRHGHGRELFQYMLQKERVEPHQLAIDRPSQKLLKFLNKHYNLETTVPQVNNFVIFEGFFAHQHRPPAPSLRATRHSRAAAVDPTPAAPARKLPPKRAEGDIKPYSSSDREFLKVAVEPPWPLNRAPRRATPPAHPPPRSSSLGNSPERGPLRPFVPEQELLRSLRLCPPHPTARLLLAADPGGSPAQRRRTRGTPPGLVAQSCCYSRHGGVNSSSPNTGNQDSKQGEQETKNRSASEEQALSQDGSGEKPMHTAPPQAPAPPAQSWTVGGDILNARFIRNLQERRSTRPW
UniProt O60282: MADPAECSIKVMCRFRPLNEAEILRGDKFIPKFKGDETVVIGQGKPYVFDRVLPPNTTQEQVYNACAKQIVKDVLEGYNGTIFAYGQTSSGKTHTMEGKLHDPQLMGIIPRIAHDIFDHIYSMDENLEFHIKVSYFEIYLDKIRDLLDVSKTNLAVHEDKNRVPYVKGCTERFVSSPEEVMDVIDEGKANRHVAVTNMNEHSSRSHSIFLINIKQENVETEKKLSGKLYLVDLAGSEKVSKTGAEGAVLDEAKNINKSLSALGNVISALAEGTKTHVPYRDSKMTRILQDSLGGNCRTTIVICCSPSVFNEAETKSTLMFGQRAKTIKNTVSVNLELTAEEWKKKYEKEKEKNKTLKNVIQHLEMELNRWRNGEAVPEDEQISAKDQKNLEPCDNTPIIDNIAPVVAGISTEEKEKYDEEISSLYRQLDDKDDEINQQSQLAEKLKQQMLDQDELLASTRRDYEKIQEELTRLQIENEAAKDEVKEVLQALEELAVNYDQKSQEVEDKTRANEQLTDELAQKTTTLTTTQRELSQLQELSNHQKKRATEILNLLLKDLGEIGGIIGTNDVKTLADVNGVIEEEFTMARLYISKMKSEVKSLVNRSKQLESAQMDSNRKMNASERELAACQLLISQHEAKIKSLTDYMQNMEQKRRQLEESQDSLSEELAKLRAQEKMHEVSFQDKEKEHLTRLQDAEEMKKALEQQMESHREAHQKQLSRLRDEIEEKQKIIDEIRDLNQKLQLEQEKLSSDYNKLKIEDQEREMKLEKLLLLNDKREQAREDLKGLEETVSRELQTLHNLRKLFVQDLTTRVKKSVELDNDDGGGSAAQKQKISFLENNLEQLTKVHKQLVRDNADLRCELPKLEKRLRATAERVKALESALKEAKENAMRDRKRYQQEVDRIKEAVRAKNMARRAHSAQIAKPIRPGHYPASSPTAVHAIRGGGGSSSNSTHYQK
UniProt Q8K341: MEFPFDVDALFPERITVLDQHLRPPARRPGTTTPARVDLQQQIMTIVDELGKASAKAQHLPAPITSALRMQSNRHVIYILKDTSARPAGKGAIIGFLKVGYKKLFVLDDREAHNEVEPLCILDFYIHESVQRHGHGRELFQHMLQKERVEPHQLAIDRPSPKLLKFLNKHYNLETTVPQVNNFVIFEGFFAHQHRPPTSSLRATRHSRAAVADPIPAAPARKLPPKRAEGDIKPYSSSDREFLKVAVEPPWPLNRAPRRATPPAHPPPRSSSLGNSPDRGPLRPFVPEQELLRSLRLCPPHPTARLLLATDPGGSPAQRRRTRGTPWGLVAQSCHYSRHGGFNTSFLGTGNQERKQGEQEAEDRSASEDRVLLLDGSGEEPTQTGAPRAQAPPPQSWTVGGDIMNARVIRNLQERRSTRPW

Experiments:
[1] = target: T1, Myc-MFN2 WT (UniProt O95140); assay: co-IP
T1 sequence: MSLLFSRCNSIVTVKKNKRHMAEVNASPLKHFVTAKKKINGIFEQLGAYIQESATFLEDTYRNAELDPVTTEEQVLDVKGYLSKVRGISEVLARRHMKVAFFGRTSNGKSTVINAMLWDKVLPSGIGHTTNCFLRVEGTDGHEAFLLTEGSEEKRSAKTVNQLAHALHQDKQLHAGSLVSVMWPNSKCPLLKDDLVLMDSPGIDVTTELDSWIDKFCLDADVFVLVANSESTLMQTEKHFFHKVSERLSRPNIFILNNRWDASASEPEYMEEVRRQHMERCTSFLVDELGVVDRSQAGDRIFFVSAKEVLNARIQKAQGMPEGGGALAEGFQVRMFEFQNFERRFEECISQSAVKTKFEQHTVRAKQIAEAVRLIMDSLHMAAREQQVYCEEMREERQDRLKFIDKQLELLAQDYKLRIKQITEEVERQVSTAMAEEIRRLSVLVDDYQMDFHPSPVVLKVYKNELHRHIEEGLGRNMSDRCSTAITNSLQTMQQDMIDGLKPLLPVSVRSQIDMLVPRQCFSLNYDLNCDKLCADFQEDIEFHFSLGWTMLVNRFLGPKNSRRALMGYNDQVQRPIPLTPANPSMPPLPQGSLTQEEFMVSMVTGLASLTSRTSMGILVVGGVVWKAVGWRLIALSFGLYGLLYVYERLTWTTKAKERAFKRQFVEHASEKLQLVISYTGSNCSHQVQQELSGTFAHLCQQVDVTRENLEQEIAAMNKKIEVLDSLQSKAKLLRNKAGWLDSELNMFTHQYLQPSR

[2] = target: Flag-ATAT1 WT (UniProt Q5SQI0); assay: co-IP
[3] = target: Flag-ATAT1 WT (UniProt Q5SQI0); assay: co-IP; remark: listed apart in the source
[4] = target: T2, Mitofusin-2 (MFN2), endogenous in WT MEFs (mouse (endogenous in MEFs)) (UniProt Q80U63); assay: proximity ligation
T2 sequence: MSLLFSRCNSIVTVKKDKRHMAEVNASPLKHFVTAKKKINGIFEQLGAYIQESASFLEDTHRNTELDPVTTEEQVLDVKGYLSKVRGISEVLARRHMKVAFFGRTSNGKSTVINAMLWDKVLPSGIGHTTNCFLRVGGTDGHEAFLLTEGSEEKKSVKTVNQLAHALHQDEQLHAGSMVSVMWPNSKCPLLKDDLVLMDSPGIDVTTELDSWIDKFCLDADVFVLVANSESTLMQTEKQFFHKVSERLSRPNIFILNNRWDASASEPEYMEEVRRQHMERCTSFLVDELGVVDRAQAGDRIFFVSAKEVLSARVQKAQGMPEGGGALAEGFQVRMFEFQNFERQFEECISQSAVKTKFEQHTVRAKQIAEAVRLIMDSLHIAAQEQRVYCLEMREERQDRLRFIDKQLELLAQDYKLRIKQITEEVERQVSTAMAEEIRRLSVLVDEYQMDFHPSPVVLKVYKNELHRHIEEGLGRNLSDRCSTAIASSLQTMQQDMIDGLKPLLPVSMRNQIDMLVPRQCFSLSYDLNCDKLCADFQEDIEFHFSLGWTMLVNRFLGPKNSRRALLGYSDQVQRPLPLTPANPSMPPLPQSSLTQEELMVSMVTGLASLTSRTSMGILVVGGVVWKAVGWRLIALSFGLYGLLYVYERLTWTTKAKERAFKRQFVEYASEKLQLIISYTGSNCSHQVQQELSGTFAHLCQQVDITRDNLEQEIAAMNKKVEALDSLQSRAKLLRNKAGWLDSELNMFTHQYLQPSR

With “ATAT1, endogenous in HEK293T cells (from UniProt Q5SQI0 1-421) (enzyme)” the binding [1] was “binds”.
“Kinesin heavy chain (Kif5c), endogenous in HEK293T cells (from UniProt O60282 1-957)” was tested, and the binding [2] was “binds” and the binding [3] was “binds”.
For “α-tubulin acetyltransferase 1 (ATAT1), endogenous in WT MEFs (from UniProt Q8K341 1-421) (enzyme)”, the binding [4] was “binds”.
